This passage reports binding results from patent publication US20130158238A1 (THERACLONE SCIENCES, published 2013).

Protein sequences, listed by entry. Tags and fused reporters are not part of them.
UniProt P06821: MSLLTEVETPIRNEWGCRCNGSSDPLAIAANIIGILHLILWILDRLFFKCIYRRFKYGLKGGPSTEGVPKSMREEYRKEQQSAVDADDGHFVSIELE

Assay [1] addresses M2 protein on influenza A/Puerto Rico/8/34 (H1N1) virus particles (Influenza A virus A/Puerto Rico/8/34 (H1N1)) (UniProt P06821). Nature of the assay: ELISA on PR8 virus, crude supernatants.
Assay [2] shares this target. Briefly: ELISA on virus, crude supernatants.

Results are given in words; binding and its absence hold for the method and conditions named. Some entries that bind do so weakly or less than the wild type.

B1: 23K12 (antibody, V domains shown)
VH: EVQLVESGGGLVQPGGSLRISCAASGFTVSSNYMSWVRQAPGKGLEWVSVIYSGGSTYYADSVKGRFSFSRDNSKNTVFLQMNSLRAEDTAVYYCARCLSRMRGYGLDVWGQGTTVTVS
VL: DIQMTQSPSSLSASVGDRVTITCRTSQSISSYLNWYQQKPGKAPKLLIYAASSLQSGVPSRFSGSGSGTDFTLTISGLQPEDFATYYCQQSYSMPAFGQGTKLEIK
Regarding B1, the binding entry in assay [1] and in assay [2] was “binds” each time.
